PubChem BioAssay AID1159599, NIAID | 2016
Screen: 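Mouse macrophage genes that control Tnf-alpha promoter output upon LPS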. Cell system: mouse RAW264.7 G9 macrophage reporter clone cells. Reagents: single siRNA against mouse genes. Time to read-out: 48 to 72 h after siRNA transfection, LPS for the last 16 h. Challenge: LPS (Salmonella minnesota R595), 16 h before fixation; dose not stated. Detection: 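Nuclear mCherry from a Tnf promoter reporter imaged after LPS, background removed, robust z-score from per-plate median and MAD, averaged over replicates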. Scale: Tnf reporter z-score: higher = stronger Tnf promoter reporter signal after LPS. Hit rule: 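Active when the replicate-mean Tnf reporter z-score is about -1.5 or lower, or about 1.5 or higher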. Meaning of the calls: active = strong change either way; inactive = little change.
This is one part, drawn at random, of 756 deposited reagents. 130 of them (17%) count as active. 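Calls are two-sided: actives include siRNAs that raised the Tnf reporter as well as ones that lowered it.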 Entries without a mark were called inactive. The numbers tell different reagents against one gene apart. Not given: the amount of reagent.

no.	gene	reagent	Tnf reporter z-score, replicate mean
1	Il6	1	0.427
2	Il6	2	-0.891
3	Il6	3	0.639
4	Il6	4	-0.747
5	Il6	5	0.503
6	Il6	6	-0.00514
7	Map2k4	1	0.725
8	Map2k4	2	-0.175
9	Map2k4	3	-0.114
10	Map2k4	4	0.8
11	Map2k4	5	-1.21
12	Map2k4	6	-1.04
13	Map3k7	1	-0.322
14	Map3k7	2	0.799
15	Map3k7	3	-0.86
16	Map3k7	4	0.622
17	Map3k7	5	-0.653
18	Map3k7	6	-1.71 (active)
19	Ripk1	1	-0.828
20	Ripk1	2	-0.321
21	Ripk1	3	1.11
22	Ripk1	4	3.76 (active)
23	Ripk1	5	-1
24	Ripk1	6	2.37 (active)
25	Elk4	1	-0.114
26	Elk4	2	-0.0486
27	Elk4	3	-0.4
28	Elk4	4	0.525
29	Elk4	5	-1.32
30	Elk4	6	-1.26
31	Ticam1	1	-0.895
32	Ticam1	2	1.4
33	Ticam1	3	-0.407
34	Ticam1	4	-1.08
35	Ticam1	5	-1.19
36	Ticam1	6	-1.76 (active)
37	Nfkb2	1	-0.532
38	Nfkb2	2	-0.855
39	Nfkb2	3	-1.41
40	Nfkb2	4	0.525
41	Nfkb2	5	1.29
42	Nfkb2	6	-1.37
43	Tab1	1	0.929
44	Tab1	2	-2.27 (active)
45	Tab1	3	-0.732
46	Tab1	4	-1.55 (active)
47	Tab1	5	2.19 (active)
48	Tab1	6	-1.43
49	Otud5	1	0.0665
50	Otud5	2	0.151
51	Otud5	3	-0.564
52	Otud5	4	-1.34
53	Otud5	5	-1.34
54	Otud5	6	-2.39 (active)
55	Nfkbia	1	1.24
56	Nfkbia	2	-1.68 (active)
57	Nfkbia	3	1.49
58	Nfkbia	4	-0.281
59	Nfkbia	5	0.575
60	Nfkbia	6	0.104
61	Ptpn6	1	0.681
62	Ptpn6	2	0.157
63	Ptpn6	3	-0.238
64	Ptpn6	4	-0.694
65	Ptpn6	5	-1.87 (active)
66	Ptpn6	6	-2.15 (active)
67	Mapk9	1	-0.333
68	Mapk9	2	-1.05
69	Mapk9	3	-1.5 (active)
70	Mapk9	4	0.935
71	Mapk9	5	-1.2
72	Mapk9	6	1.15
73	Chuk	1	0.886
74	Chuk	2	-1.2
75	Chuk	3	1.34
76	Chuk	4	-2.26 (active)
77	Chuk	5	-1.23
78	Chuk	6	-0.22
79	Ep300	1	-1.68 (active)
80	Ep300	2	-0.482
81	Ep300	3	0.376
82	Ep300	4	-0.318
83	Ep300	5	-0.711
84	Ep300	6	-0.233
85	Tab3	1	-0.434
86	Tab3	2	-0.256
87	Tab3	3	-0.885
88	Tab3	4	0.767
89	Tab3	5	-0.252
90	Tab3	6	-0.0927
91	Nfkbie	1	-0.879
92	Nfkbie	2	-1.06
93	Nfkbie	3	0.428
94	Nfkbie	4	-0.487
95	Nfkbie	5	-0.277
96	Nfkbie	6	0.361
97	Elf4	1	-0.655
98	Elf4	2	-0.726
99	Elf4	3	-0.276
100	Elf4	4	-0.526
101	Elf4	5	-1.55 (active)
102	Elf4	6	-0.17
103	Nfkb1	1	0.326
104	Nfkb1	2	-1.13
105	Nfkb1	3	0.197
106	Nfkb1	4	0.951
107	Nfkb1	5	-0.362
108	Nfkb1	6	0.0131
109	Ly86	1	-0.15
110	Ly86	2	0.218
111	Ly86	3	-1.2
112	Ly86	4	0.792
113	Ly86	5	1.22
114	Ly86	6	-0.31
